Tested on: macrophage of atheromatous plaque
Assay: Confocal fluorescence microscopy of plaque ladened aortas after texaphyrin injection
Type: in vivo, hypercholesterolemic NZW rabbits
Conditions: 10 μmol/kg over 2 consecutive days, sacrificed 24 hours after last injection, 488 nm excitation, 660 nm cut-off filter

CC(=O)[O-].CC(=O)[O-].CCc1c(CC)c2cc3nc(cnc4cc(OCCOCCOCCOC)c(OCCOCCOCCOC)cc4ncc4nc(cc1[n-]2)C(CCCO)=C4C)C(C)=C3CCCO.O.[Lu+3] [LuT2BET]
intracellular biodistribution pattern (fluorescence) in atheromatous plaque-ladened aorta (listed as PCI-0123): consistent with that expected for macrophage distribution
intracellular biodistribution pattern (fluorescence) in atheromatous plaque-ladened aorta (listed as lutetium texaphyrin): punctate irregular fluorescent spots were distributed throughout the atheroma
